# Hit rate of the full screen: of about 400,000 compounds, about 13,000 (3.2%) were called active. This list was built around the results that the source calls inconclusive (neither active nor inactive); the mix of calls is not that of the screen. Calls follow the shape of the dose curve; as a rule, active = well fitted cell-killing curve with a large enough effect; inconclusive = small, poorly fitted or top-dose-only effect, or effect the other way; inactive = flat fitted curve, though single readings scatter. A potency beside an inconclusive call is a rough fit, not a confirmed value.
# Assay: qHTS assay for MDR1-selective chemotherapeutics: Primary screen using the drug-selected MDR subline cells KB-V1; also: nearly all actives have a fitted effect of over 60% in size
# Conditions: KB-V1 MDR cells viability, CellTiter-Glo, 72 h; activity change, negative = cytotoxicity: at 46.1 µM (top of the series)
# Method in brief: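 qHTS viability screen in drug-selected KB-V1 MDR cells: 72 h compound treatment at 37 degrees C, ATP luminescence end point.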
# % is scaled to controls: 0 for no effect and ±100 for the full control effect; potency is read from the fitted curve at half-maximal effect.
Structure (SMILES),Potency,"activity change, negative = cytotoxicity"
Cc1nc2ccccc2c(=O)n1-c1ccc(NS(=O)(=O)c2ccc(F)cc2F)cc1,"inconclusive: 0.0092 µM [rising, full curve]",–
CO/N=C1\CCn2c1c(C)c1ccccc12,"inconclusive: 25.9 µM [rising, single point]",–
CCN(CC(=O)NCc1cccs1)C(=O)c1ccc([N+](=O)[O-])o1,–,inactive: -1.2%
COc1cc(NC(=O)CN(C)S(=O)(=O)c2ccc3c(c2)CC(C)N3C(C)=O)cc(OC)c1 (centres undefined),"inconclusive: 18.4 µM [rising, single point]",–
COc1ccc(C(=O)c2no[n+]([O-])c2C(=O)c2ccc(OC)cc2)cc1,"inconclusive: 29.1 µM [cytotoxic, single point]",–
COc1ccc(N2CCN(C(=O)c3cccnc3SCc3cccc(Br)c3)CC2)cc1,"inconclusive: 13 µM [cytotoxic, partial curve]",–
Cc1cccc(CC(=O)Nc2cccc(-c3cn4cccnc4n3)c2)c1,–,inactive: 11.6%
CCOC(=O)C1(Cc2ccc(OC)cc2)CCN(C(=O)c2ccc3[nH]ccc3c2)CC1,–,inactive: -23.9%
CCOc1ccc(C(=O)N2CCc3ccccc32)cc1OCC,"inconclusive: 23.1 µM [cytotoxic, single point]",–
CCN1CCN(c2ccc(S(=O)(=O)N3CCCCC3)cc2NC(=O)c2ccc([N+](=O)[O-])o2)CC1,"inconclusive: 20.6 µM [cytotoxic, single point]",–
COC(=O)[C@@]12C[C@@H](CC(=O)NCc3cccc4ccccc34)C(=O)N(CCc3ccc(OC)c(OC)c3)C1=CCC(C)(C)C2,active: 23.1 µM,–
Cc1ccc(S(=O)(=O)N[C@@H](CC(C)C)C(=O)NCc2ccco2)cc1,active: 14.6 µM,–
O=C(OCc1ccccc1)N1CCC2CC1c1c(-c3ccc(C(F)(F)F)cc3)cccc12 (centres undefined),–,inactive: -0.0299%
CCC(C)NC(=O)CC(NS(=O)(=O)c1ccc(Cl)cc1)c1ccco1 (centres undefined),"inconclusive: 2.59 µM [cytotoxic, full curve, poor fit]",–
CCOc1ccccc1N1CC(c2nc3ccccc3n2CCOc2ccc(OC)cc2)CC1=O (centres undefined),active: 5.8 µM,–
Cc1ccc(Cn2nc(C)c(NC(=O)c3cc(C)no3)c2C)cc1,"inconclusive: 2.91 µM [cytotoxic, full curve, poor fit]",–
CC(=O)Nc1ccc(Sc2ncccc2C(=O)Nc2ccc(OC(F)(F)F)cc2)cn1,"inconclusive: 16.4 µM [cytotoxic, partial curve]",–
Cn1nc([N+](=O)[O-])nc1Oc1ccccc1,"inconclusive: 12.6 µM [rising, single point]",–
O=C(c1ccccc1O)N1N=C(C(F)(F)F)CC1(O)c1ccc([N+](=O)[O-])cc1 (centres undefined),"inconclusive: 7.31 µM [cytotoxic, partial curve]",–

# Given with bars between the fields: 4 of the compounds above.
Structure (SMILES) | Potency | activity change, negative = cytotoxicity
Cc1cccc(CC(=O)Nc2cccc(-c3cn4cccnc4n3)c2)c1 | – | inactive: 11.6%
CCOC(=O)C1(Cc2ccc(OC)cc2)CCN(C(=O)c2ccc3[nH]ccc3c2)CC1 | – | inactive: -23.9%
CCOc1ccc(C(=O)N2CCc3ccccc32)cc1OCC | inconclusive: 23.1 µM [cytotoxic, single point] | –
CCN1CCN(c2ccc(S(=O)(=O)N3CCCCC3)cc2NC(=O)c2ccc([N+](=O)[O-])o2)CC1 | inconclusive: 20.6 µM [cytotoxic, single point] | –
